# Assay results taken from paper PMC7819943, “Rice protein-binding microarrays: a tool to detect cis-acting elements near promoter regions in rice”.
# The chains behind the UniProt entries cited, without tags or fusion partners.
# UniProt Q0JBA9, entry or part of it: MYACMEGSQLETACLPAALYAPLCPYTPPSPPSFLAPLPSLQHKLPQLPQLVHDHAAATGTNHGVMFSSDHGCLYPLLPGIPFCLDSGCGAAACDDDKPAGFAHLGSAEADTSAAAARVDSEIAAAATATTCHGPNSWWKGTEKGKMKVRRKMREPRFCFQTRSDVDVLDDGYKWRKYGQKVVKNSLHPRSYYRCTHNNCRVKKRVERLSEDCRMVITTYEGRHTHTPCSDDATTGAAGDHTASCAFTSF
# Some of the results follow.
# Molecular target: OsWRKY34 (Oryza sativa, UniProt Q0JBA9 1-250)
# Test: protein-binding microarray (RPBM); PBS, 2% BSA, 51.3 ng/ul salmon testes DNA, 50 uM zinc acetate, 200 nM TF, 25 C, 1 h; high values mean tight binding
# Details: protein: recombinant; tags: N-terminal polyhistidine and DsRed monomer fusion (pET32a); label: CyDye5-dUTP incorporated in the synthesized complementary strand; 3' TTTTT single-stranded linker to array surface; dsDNA, one strand shown
# In short: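 Ni–NTA purification followed expression in E. coli BL21-CodonPlus of transcription factors fused N-terminally to a polyhistidine tag and DsRed. At 200 nM in PBS with 2% BSA, salmon testes DNA and 50 µM zinc acetate, the protein was incubated for 1 h at 25 °C with a custom Agilent array that had been primer-extended with Cy5-dUTP and blocked with 2% BSA. After washing, the array was read on an Axon 4000B scanner. The binding signal is per-feature fluorescence intensity in arbitrary units.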
row,Sequence,binding signal
1,CCACAAACATATATGCCTTTTAAATGTTCCTACATGCAAGCGGAGTCACCTAGTGCAG,8260 fluorescence intensity (a.u.)
2,CCCCTCGCCGGCCGTCGCGCTCTCGAAGCCGTACGCTGTTCGGAGTCACCTAGTGCAG,9210 fluorescence intensity (a.u.)
3,ATCGAGCAGGTTTCCCCAAATCTTAGGGTTAGGGTTTCGTCGGAGTCACCTAGTGCAG,9810 fluorescence intensity (a.u.)
4,GTACCATTAATGCAATTTATTCATCATGTATAATACTATTCGGAGTCACCTAGTGCAG,8940 fluorescence intensity (a.u.)
5,GTGTCTGAGTACTGTTATCCACCTGTAATATTTTGATTTTCGGAGTCACCTAGTGCAG,9200 fluorescence intensity (a.u.)
6,TTTATTTTTTTTGTTACTTTTGGGATAAATTTACAATTACCGGAGTCACCTAGTGCAG,9060 fluorescence intensity (a.u.)
7,CCCACATCCATCTCCTCCATCTCACCAAACCAACACACCACGGAGTCACCTAGTGCAG,9180 fluorescence intensity (a.u.)
8,GCAGGTCCTCCATCAACGTCGCCGTACGTGTTCCGCCGGCCGGAGTCACCTAGTGCAG,8190 fluorescence intensity (a.u.)
9,CATCGCCCGCGCGCGCGCCCGCCTCGACGCCGCCGCCGCCCGGAGTCACCTAGTGCAG,10100 fluorescence intensity (a.u.)
10,AAGACCACCGTCGACCTTTCCTCATCTCACCCGTCACTACCGGAGTCACCTAGTGCAG,10100 fluorescence intensity (a.u.)
11,CTGGAAGCAACCAAAGATGGAGGATGGGGTTTTGTGGTACCGGAGTCACCTAGTGCAG,8180 fluorescence intensity (a.u.)
12,AATCGCCGTTCTAGCTTTTTGGTCTTGGTCTTTTTTTATCCGGAGTCACCTAGTGCAG,21400 fluorescence intensity (a.u.)
13,CCTAAATGGTTTTGCTTGGACACTTCTGGTTACCTTGCATCGGAGTCACCTAGTGCAG,11900 fluorescence intensity (a.u.)
14,CTGAAGAGGCGGAGGGGTTGGGATCGAGGTAATTGGGGCTCGGAGTCACCTAGTGCAG,8890 fluorescence intensity (a.u.)
15,CTGACTGGGTAGGAGGAAGGTGGAGGTGGGGAGGATGCGGCGGAGTCACCTAGTGCAG,13600 fluorescence intensity (a.u.)
16,TTTGCCATGATTTCCCACCCATCTTTAAATCCTAACAATTCGGAGTCACCTAGTGCAG,8190 fluorescence intensity (a.u.)
17,CCGCCGCCGCCGTTTTCTCCCGTCGTACGACGCTGCGTGTCGGAGTCACCTAGTGCAG,9980 fluorescence intensity (a.u.)
18,AATCTATCACGTCACACTATGAACAATCTGCCACGTCACACGGAGTCACCTAGTGCAG,8430 fluorescence intensity (a.u.)
19,TGTTCCACCGTACCATTTCCCATTGGTAGTGTCATTTCCCCGGAGTCACCTAGTGCAG,8900 fluorescence intensity (a.u.)
20,CCGTCTCGTCTCCTCCGCTACTTGCGCCATCCTCGGCTGACGGAGTCACCTAGTGCAG,8220 fluorescence intensity (a.u.)
21,AGTTGGTTACCCTGTTGTTGTCCGGCCTTCGTATGTTCTTCGGAGTCACCTAGTGCAG,11900 fluorescence intensity (a.u.)

row,Sequence,binding signal
1,GGGTGTTTTCAGACGGAGAGAGGCGGCGGCGGCGGCGGGGCGGAGTCACCTAGTGCAG,18500 fluorescence intensity (a.u.)
2,GGTTGAATGCAACTTCAAGTGGGCGAATTTGCAAACATTCCGGAGTCACCTAGTGCAG,8690 fluorescence intensity (a.u.)
3,ATAGGATTGTTTCATGTGTTCAATTATCATCATAAATCTTCGGAGTCACCTAGTGCAG,8650 fluorescence intensity (a.u.)
4,TGAACCACATGCTATTCAATATTATGTCATACATGCTGTCCGGAGTCACCTAGTGCAG,8800 fluorescence intensity (a.u.)
5,TGTCTACATACGCTCAATCCATTATTCCCCTATTACATCACGGAGTCACCTAGTGCAG,9500 fluorescence intensity (a.u.)
6,GTACTCGTACTTCTCTTCTTGTCATCTTGACCGTCCGTCCCGGAGTCACCTAGTGCAG,9270 fluorescence intensity (a.u.)
7,CGTAAGCCATCCACGCACCACCCCATAAAATTTGAGATCCCGGAGTCACCTAGTGCAG,8710 fluorescence intensity (a.u.)
8,GTGATCGCTGGTTTATCTAGCTGTGACTAGTCACGTCCATCGGAGTCACCTAGTGCAG,8540 fluorescence intensity (a.u.)
9,TAGCTTGGTGGTAAGGAAGGTTAGGGGCTATTTCTCCAATCGGAGTCACCTAGTGCAG,10100 fluorescence intensity (a.u.)
10,ATCACACCACCTGATCGTTTCCTCTCACCGTGGCGCGGCTCGGAGTCACCTAGTGCAG,9940 fluorescence intensity (a.u.)
11,TACTCATGGATGCCACCGTGTCTGCACGAATTTCCCTACCCGGAGTCACCTAGTGCAG,9100 fluorescence intensity (a.u.)
12,AATCTCAGCCATCCGTTTTCATTAATGATCTAATCTCCAACGGAGTCACCTAGTGCAG,11300 fluorescence intensity (a.u.)
13,GGTAATATTAGTTGGTGTCCTGCCTTTACAATTATACGAACGGAGTCACCTAGTGCAG,8430 fluorescence intensity (a.u.)
14,CCCGTCTCTCTCGCTACCCATCGGCTCCACCGCTACCCTCCGGAGTCACCTAGTGCAG,10800 fluorescence intensity (a.u.)
15,TGTCAGGCTGATACGTGCGTCTGATTTTTTCTATCTCCATCGGAGTCACCTAGTGCAG,8340 fluorescence intensity (a.u.)
16,TAATATTGTATCATGTTTTTATCATATTCATATTCATTTACGGAGTCACCTAGTGCAG,8930 fluorescence intensity (a.u.)
17,TGGTTCGCTCGGTGGGTGGTGGTGGTTCTGTGAGCCCGCGCGGAGTCACCTAGTGCAG,18400 fluorescence intensity (a.u.)
18,TGTGCGCACGCTTTTCAAATTGTTAAATGGTGTGTTTTTTCGGAGTCACCTAGTGCAG,8970 fluorescence intensity (a.u.)
19,CTTCGCTCTTGGATTTCTTTACTTCTACGGTTCTTACTACCGGAGTCACCTAGTGCAG,11000 fluorescence intensity (a.u.)
20,TACTCGTTTTCTGCCTGATCATGCGATGGAGCCATCCTTACGGAGTCACCTAGTGCAG,8390 fluorescence intensity (a.u.)
21,TTCTCATCTTTTCTCTTATGCTTATGCGTATCATCTAAATCGGAGTCACCTAGTGCAG,10100 fluorescence intensity (a.u.)

# Some values from above.
# GGTAATATTAGTTGGTGTCCTGCCTTTACAATTATACGAACGGAGTCACCTAGTGCAG | binding signal: 8430 fluorescence intensity (a.u.)
# TAATATTGTATCATGTTTTTATCATATTCATATTCATTTACGGAGTCACCTAGTGCAG | binding signal: 8930 fluorescence intensity (a.u.)
